Source: publication PMC5399304
No constants are given. Whether binding was seen depends on the method and setting. In cells and extracts the contact can be indirect. Some binding calls cover weakened binding; strength is not graded here.

Sequences of proteins named here, by UniProt entry; tags and fusion partners are left off.
UniProt Q6R327: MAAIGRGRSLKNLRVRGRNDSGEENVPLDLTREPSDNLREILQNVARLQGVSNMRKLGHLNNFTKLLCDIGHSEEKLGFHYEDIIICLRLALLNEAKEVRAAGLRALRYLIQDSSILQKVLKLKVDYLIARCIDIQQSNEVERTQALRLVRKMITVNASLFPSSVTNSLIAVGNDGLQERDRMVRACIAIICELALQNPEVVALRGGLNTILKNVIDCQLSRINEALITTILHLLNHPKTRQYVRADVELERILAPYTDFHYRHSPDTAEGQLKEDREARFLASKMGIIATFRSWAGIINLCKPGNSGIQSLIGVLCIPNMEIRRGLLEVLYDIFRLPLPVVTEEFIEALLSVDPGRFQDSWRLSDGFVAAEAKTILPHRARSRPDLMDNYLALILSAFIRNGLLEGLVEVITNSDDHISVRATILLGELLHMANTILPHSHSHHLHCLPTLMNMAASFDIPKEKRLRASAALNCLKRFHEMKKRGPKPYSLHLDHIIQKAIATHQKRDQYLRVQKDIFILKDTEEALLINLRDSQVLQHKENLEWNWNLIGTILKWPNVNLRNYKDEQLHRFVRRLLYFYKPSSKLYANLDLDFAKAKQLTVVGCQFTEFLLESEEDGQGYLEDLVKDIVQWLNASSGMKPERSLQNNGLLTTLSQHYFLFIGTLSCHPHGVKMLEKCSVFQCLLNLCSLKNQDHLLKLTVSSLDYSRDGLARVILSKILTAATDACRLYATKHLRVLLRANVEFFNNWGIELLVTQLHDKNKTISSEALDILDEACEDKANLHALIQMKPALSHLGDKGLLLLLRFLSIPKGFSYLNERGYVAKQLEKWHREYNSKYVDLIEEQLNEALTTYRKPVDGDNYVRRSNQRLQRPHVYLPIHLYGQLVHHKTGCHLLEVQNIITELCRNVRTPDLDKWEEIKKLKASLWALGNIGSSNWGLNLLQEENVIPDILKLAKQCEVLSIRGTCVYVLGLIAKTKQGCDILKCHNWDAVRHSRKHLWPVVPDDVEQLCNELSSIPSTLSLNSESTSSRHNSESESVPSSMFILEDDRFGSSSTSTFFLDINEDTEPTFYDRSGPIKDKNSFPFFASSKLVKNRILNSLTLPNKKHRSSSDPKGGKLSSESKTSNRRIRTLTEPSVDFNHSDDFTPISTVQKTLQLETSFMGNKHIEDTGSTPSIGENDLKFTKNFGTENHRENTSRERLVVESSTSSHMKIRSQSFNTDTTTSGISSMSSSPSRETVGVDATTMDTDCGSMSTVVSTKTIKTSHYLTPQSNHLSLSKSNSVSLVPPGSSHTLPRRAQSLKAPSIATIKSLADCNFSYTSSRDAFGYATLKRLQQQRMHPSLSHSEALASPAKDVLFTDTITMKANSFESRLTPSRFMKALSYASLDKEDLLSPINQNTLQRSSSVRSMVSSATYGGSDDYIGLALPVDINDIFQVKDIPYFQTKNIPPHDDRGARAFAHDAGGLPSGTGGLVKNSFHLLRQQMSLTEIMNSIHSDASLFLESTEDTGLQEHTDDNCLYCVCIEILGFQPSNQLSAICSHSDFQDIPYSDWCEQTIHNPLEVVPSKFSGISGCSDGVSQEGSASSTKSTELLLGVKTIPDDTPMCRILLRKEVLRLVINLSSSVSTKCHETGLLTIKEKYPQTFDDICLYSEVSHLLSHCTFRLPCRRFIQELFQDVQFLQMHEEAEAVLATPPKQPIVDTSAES
UniProt Q13418: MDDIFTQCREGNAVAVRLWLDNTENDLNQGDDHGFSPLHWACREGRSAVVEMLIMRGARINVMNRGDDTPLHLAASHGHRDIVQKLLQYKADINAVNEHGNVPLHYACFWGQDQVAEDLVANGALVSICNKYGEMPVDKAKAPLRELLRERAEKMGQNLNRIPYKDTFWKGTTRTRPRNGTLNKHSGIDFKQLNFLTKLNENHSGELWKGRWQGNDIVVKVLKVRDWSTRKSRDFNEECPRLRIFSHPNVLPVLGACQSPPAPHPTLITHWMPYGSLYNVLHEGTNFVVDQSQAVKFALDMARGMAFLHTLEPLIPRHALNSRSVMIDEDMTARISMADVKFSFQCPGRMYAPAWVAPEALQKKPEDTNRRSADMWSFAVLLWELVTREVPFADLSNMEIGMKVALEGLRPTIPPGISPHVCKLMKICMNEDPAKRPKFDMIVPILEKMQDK

Tests used:
[1] = target: rictor (human (endogenous in Jeko-1 and HBL-2)) (UniProt Q6R327); experiment: co-IP; endogenous proteins from lysates of Jeko-1-IR and HBL-2-IR cells (and their parental Sen cells), without treatment; IR cells also after ibrutinib treatment; detected by western blot
[2] = target: rictor (human (endogenous in Jeko-1 and HBL-2)) (UniProt Q6R327); experiment: condition: only parental (Sen) cells after ibrutinib treatment; co-IP; endogenous proteins from lysates of parental (Sen) Jeko-1 and HBL-2 cells after ibrutinib treatment; detected by western blot

binding [1]: binds
binding [2]: no binding
Substance: integrin-linked kinase (from UniProt Q13418 1-452)
